# In the supplement of paper PMC8728848:
# The list shows a part of the results.
# B1: Gs78B-bfa-542-29-542 (Bacteroides fragilis) (protein)
# chain: SEDINRNPLLPTKEDEKMDGVIYGAYLPNLEKSVIPIGTASESTEPVNRYQIGVNLAGDAWAGYMSPRDNKFNGSKNFTNYFMYENWVNYVYSFMVTDVYSPWMQIKRISQDEGTRNDEIYALAQIIKIAALHRTTDMFGPIPYSQVGKGSFKVAYDSQESVYRSFLKELEEAVQTLDDYSNKSKEVLPAFDIVYNGDVNKWMRFANSLMLRLAIRVRFADAGLAKEYAEKAVKHPAGLINSKELAAQMGKGAGLQMKNPLKVINEEYNDTRMGATIYSYLAGYNDARAAVYFVKNNGFKAVRCGIAKSGDAYNGFTRPNVHEDDPLYWMKASEVCFLKAEGALAGFDMGGSAGDFYNAGIRMSFSENGLDNSSAETYLKDSTRKPANYTDTSNGELSANAPSSITIRWENGATEEEKLERIITQKYLAIFPNGQEAWTEWRRTGYPRQIVVAENKTNSAVLIGNGYDLGGVRRLPYPRTEYEQNGENLHNAISQYLGGVDNAATKVWWDKKSK
# Experiments:
# Test in all cases: glycan array binding signal (z-score within array); higher = stronger binding
# Details in all cases: glycan notation: IUPAC condensed, linker removed
# [1] = molecular target: Neu5Ac(a2-3)GalNAc
# Outline: (§1)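 Glycan array data came from 3228 arrays in the Consortium for Functional Glycomics database, and only arrays with an available protein sequence were kept. Glycan names were put into IUPAC-condensed notation, and columns mapping to the same glycan were averaged. The binding signal is a within-array Z-score, averaged across arrays of one protein sequence run at different concentrations or buffers and across linkers. A negative Z-score can be read as non-binding.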
# [2] = molecular target: Neu5Ac(a2-3)GalNAc(b1-4)GlcNAc
# Outline: as §1
# [3] = molecular target: Neu5Ac(a2-3)[GalNAc(b1-4)]Gal(b1-4)Glc
# Outline: as §1
# [4] = molecular target: Neu5Ac(a2-3)[GalNAc(b1-4)]Gal(b1-4)GlcNAc
# Outline: as §1
# [5] = molecular target: Neu5Ac(a2-3)[GalNAc(b1-4)]Gal(b1-4)GlcNAc(b1-3)GalNAc
# Outline: as §1
# [6] = molecular target: Neu5Ac(a2-3)[Neu5Ac(a2-6)]GalNAc
# Outline: as §1
# [7] = molecular target: Neu5Ac(a2-6)Gal
# Outline: as §1
# [8] = molecular target: Neu5Ac(a2-6)Gal(b1-3)GlcNAc(b1-3)[Gal(b1-4)GlcNAc(b1-6)]Gal(b1-4)Glc
# Outline: as §1
# [9] = molecular target: Neu5Ac(a2-6)Gal(b1-4)Glc
# Outline: as §1
# [10] = molecular target: Neu5Ac(a2-6)Gal(b1-4)GlcNAc
# Outline: as §1
# [11] = molecular target: Neu5Ac(a2-6)Gal(b1-4)GlcNAc(b1-2)Man
# Outline: as §1
# [12] = molecular target: Neu5Ac(a2-6)Gal(b1-4)GlcNAc(b1-2)Man(a1-3)Man(b1-4)GlcNAc(b1-4)GlcNAc
# Outline: as §1
# [13] = molecular target: Neu5Ac(a2-6)Gal(b1-4)GlcNAc(b1-2)Man(a1-3)[Gal(b1-4)GlcNAc(b1-2)Man(a1-6)]Man(b1-4)GlcNAc(b1-4)GlcNAc
# Outline: as §1
# [14] = molecular target: Neu5Ac(a2-6)Gal(b1-4)GlcNAc(b1-2)Man(a1-3)[GlcNAc(b1-2)Man(a1-6)]Man(b1-4)GlcNAc(b1-4)GlcNAc
# Outline: as §1
# [15] = molecular target: Neu5Ac(a2-6)Gal(b1-4)GlcNAc(b1-2)Man(a1-3)[GlcNAc(b1-4)][Neu5Ac(a2-6)Gal(b1-4)GlcNAc(b1-2)Man(a1-6)]Man(b1-4)GlcNAc(b1-4)GlcNAc
# Outline: as §1
# [16] = molecular target: Neu5Ac(a2-6)Gal(b1-4)GlcNAc(b1-2)Man(a1-3)[Man(a1-6)]Man(b1-4)GlcNAc(b1-4)GlcNAc
# Outline: as §1
# [17] = molecular target: Neu5Ac(a2-6)Gal(b1-4)GlcNAc(b1-2)Man(a1-3)[Neu5Ac(a2-3)Gal(b1-4)GlcNAc(b1-2)Man(a1-6)]Man(b1-4)GlcNAc(b1-4)GlcNAc
# Outline: as §1
# [18] = molecular target: Neu5Ac(a2-6)Gal(b1-4)GlcNAc(b1-2)Man(a1-3)[Neu5Ac(a2-6)Gal(b1-4)GlcNAc(b1-2)Man(a1-6)]Man(b1-4)GlcNAc(b1-4)GlcNAc
# Outline: as §1
# [19] = molecular target: Neu5Ac(a2-6)Gal(b1-4)GlcNAc(b1-2)Man(a1-3)[Neu5Ac(a2-6)Gal(b1-4)GlcNAc(b1-2)Man(a1-6)]Man(b1-4)GlcNAc(b1-4)[Fuc(a1-6)]GlcNAc
# Outline: as §1
# [20] = molecular target: Neu5Ac(a2-6)Gal(b1-4)GlcNAc(b1-2)Man(a1-6)Man(b1-4)GlcNAc(b1-4)GlcNAc
# Outline: as §1
# [21] = molecular target: Neu5Ac(a2-6)Gal(b1-4)GlcNAc(b1-2)Man(a1-6)[Gal(b1-4)GlcNAc(b1-2)Man(a1-3)]Man(b1-4)GlcNAc(b1-4)GlcNAc
# Outline: as §1
# [22] = molecular target: Neu5Ac(a2-6)Gal(b1-4)GlcNAc(b1-2)Man(a1-6)[GlcNAc(b1-2)Man(a1-3)]Man(b1-4)GlcNAc(b1-4)GlcNAc
# Outline: as §1
# [23] = molecular target: Neu5Ac(a2-6)Gal(b1-4)GlcNAc(b1-2)Man(a1-6)[Man(a1-3)]Man(b1-4)GlcNAc(b1-4)GlcNAc
# Outline: as §1
# [24] = molecular target: Neu5Ac(a2-6)Gal(b1-4)GlcNAc(b1-2)[Neu5Ac(a2-6)Gal(b1-4)GlcNAc(b1-4)]Man(a1-3)[GlcNAc(b1-4)][Neu5Ac(a2-6)Gal(b1-4)GlcNAc(b1-2)[Neu5Ac(a2-6)Gal(b1-4)GlcNAc(b1-6)]Man(a1-6)]Man(b1-4)GlcNAc(b1-4)GlcNAc
# Outline: as §1
# [25] = molecular target: Neu5Ac(a2-6)Gal(b1-4)GlcNAc(b1-2)[Neu5Ac(a2-6)Gal(b1-4)GlcNAc(b1-4)]Man(a1-3)[GlcNAc(b1-4)][Neu5Ac(a2-6)Gal(b1-4)GlcNAc(b1-4)Man(a1-6)]Man(b1-4)GlcNAc(b1-4)GlcNAc
# Outline: as §1
# [26] = molecular target: Neu5Ac(a2-6)Gal(b1-4)GlcNAc(b1-2)[Neu5Ac(a2-6)Gal(b1-4)GlcNAc(b1-6)]Man(a1-6)[Neu5Ac(a2-6)Gal(b1-4)GlcNAc(b1-2)Man(a1-3)][GlcNAc(b1-4)]Man(b1-4)GlcNAc(b1-4)GlcNAc
# Outline: as §1
# [27] = molecular target: Neu5Ac(a2-6)Gal(b1-4)GlcNAc(b1-3)Gal(b1-3)GlcNAc
# Outline: as §1
# [28] = molecular target: Neu5Ac(a2-6)Gal(b1-4)GlcNAc(b1-3)Gal(b1-4)GlcNAc
# Outline: as §1
# [29] = molecular target: Neu5Ac(a2-6)Gal(b1-4)GlcNAc(b1-3)Gal(b1-4)GlcNAc(b1-2)Man(a1-3)[Neu5Ac(a2-6)Gal(b1-4)GlcNAc(b1-3)Gal(b1-4)GlcNAc(b1-2)Man(a1-6)]GalNAc
# Outline: as §1
# [30] = molecular target: Neu5Ac(a2-6)Gal(b1-4)GlcNAc(b1-3)Gal(b1-4)GlcNAc(b1-3)Gal(b1-4)GlcNAc
# Outline: as §1
# [31] = molecular target: Neu5Ac(a2-6)Gal(b1-4)GlcNAc(b1-3)Gal(b1-4)GlcNAc(b1-3)Gal(b1-4)GlcNAc(b1-2)Man(a1-3)[Neu5Ac(a2-6)Gal(b1-4)GlcNAc(b1-3)Gal(b1-4)GlcNAc(b1-3)Gal(b1-4)GlcNAc(b1-2)Man(a1-6)]GalNAc
# Outline: as §1
# [32] = molecular target: Neu5Ac(a2-6)Gal(b1-4)GlcNAc(b1-3)Gal(b1-4)GlcNAc(b1-3)GalNAc
# Outline: as §1
# [33] = molecular target: Neu5Ac(a2-6)Gal(b1-4)GlcNAc(b1-3)Gal(b1-4)GlcNAc(b1-3)[Neu5Ac(a2-6)Gal(b1-4)GlcNAc(b1-3)Gal(b1-4)GlcNAc(b1-6)]GalNAc
# Outline: as §1
# [34] = molecular target: Neu5Ac(a2-6)Gal(b1-4)GlcNAc(b1-3)Gal(b1-4)GlcNAc(b1-6)[Gal(b1-3)]GalNAc
# Outline: as §1
# [35] = molecular target: Neu5Ac(a2-6)Gal(b1-4)GlcNAc(b1-3)Gal(b1-4)[Fuc(a1-3)]GlcNAc(b1-3)Gal(b1-4)[Fuc(a1-3)]GlcNAc
# Outline: as §1
# [36] = molecular target: Neu5Ac(a2-6)Gal(b1-4)GlcNAc(b1-3)GalNAc
# Outline: as §1
# [37] = molecular target: Neu5Ac(a2-6)Gal(b1-4)GlcNAc(b1-3)[Neu5Ac(a2-6)Gal(b1-4)GlcNAc(b1-6)]GalNAc
# Outline: as §1
# [38] = molecular target: Neu5Ac(a2-6)Gal(b1-4)GlcNAc(b1-6)GalNAc
# Outline: as §1
# [39] = molecular target: Neu5Ac(a2-6)Gal(b1-4)GlcNAc(b1-6)[Gal(b1-3)GlcNAc(b1-3)]Gal(b1-4)Glc
# Outline: as §1
# [40] = molecular target: Neu5Ac(a2-6)Gal(b1-4)GlcNAc(b1-6)[Gal(b1-3)]GalNAc
# Outline: as §1
# [41] = molecular target: Neu5Ac(a2-6)Gal(b1-4)GlcNAc6S
# Outline: as §1
# [42] = molecular target: Neu5Ac(a2-6)GalNAc
# Outline: as §1
# [43] = molecular target: Neu5Ac(a2-6)GalNAc(b1-4)GlcNAc
# Outline: as §1
# [44] = molecular target: Neu5Ac(a2-6)GalNAc(b1-4)GlcNAc6S
# Outline: as §1
# [45] = molecular target: Neu5Ac(a2-6)GlcNAc(b1-4)GlcNAc
# Outline: as §1
binder,measurement,setting,value
B1,glycan array binding signal (z-score),[1],-0.526
same,glycan array binding signal (z-score),[2],-0.652
same,glycan array binding signal (z-score),[3],-0.208
same,glycan array binding signal (z-score),[4],-0.185
same,glycan array binding signal (z-score),[5],2.04
same,glycan array binding signal (z-score),[6],-0.608
same,glycan array binding signal (z-score),[7],-0.792
same,glycan array binding signal (z-score),[8],-0.42
same,glycan array binding signal (z-score),[9],-0.346
same,glycan array binding signal (z-score),[10],-0.748
same,glycan array binding signal (z-score),[11],-0.457
same,glycan array binding signal (z-score),[12],1.48
same,glycan array binding signal (z-score),[13],0.915
same,glycan array binding signal (z-score),[14],-0.77
same,glycan array binding signal (z-score),[15],-0.503
same,glycan array binding signal (z-score),[16],-0.366
same,glycan array binding signal (z-score),[17],-0.22
same,glycan array binding signal (z-score),[18],0.518
same,glycan array binding signal (z-score),[19],-0.532
same,glycan array binding signal (z-score),[20],-0.355
same,glycan array binding signal (z-score),[21],1.47
same,glycan array binding signal (z-score),[22],1.73
same,glycan array binding signal (z-score),[23],-0.495
same,glycan array binding signal (z-score),[24],1.03
same,glycan array binding signal (z-score),[25],0.99
same,glycan array binding signal (z-score),[26],-0.454
same,glycan array binding signal (z-score),[27],-0.425
same,glycan array binding signal (z-score),[28],-0.428
same,glycan array binding signal (z-score),[29],2.67
same,glycan array binding signal (z-score),[30],-0.832
same,glycan array binding signal (z-score),[31],0.485
same,glycan array binding signal (z-score),[32],-0.49
same,glycan array binding signal (z-score),[33],-0.046
same,glycan array binding signal (z-score),[34],1.83
same,glycan array binding signal (z-score),[35],-0.632
same,glycan array binding signal (z-score),[36],-0.462
same,glycan array binding signal (z-score),[37],-0.544
same,glycan array binding signal (z-score),[38],0.134
same,glycan array binding signal (z-score),[39],0.132
same,glycan array binding signal (z-score),[40],-0.779
same,glycan array binding signal (z-score),[41],-0.838
same,glycan array binding signal (z-score),[42],-0.827
same,glycan array binding signal (z-score),[43],-0.845
same,glycan array binding signal (z-score),[44],-0.619
same,glycan array binding signal (z-score),[45],-0.841

# A stretch from further up, for reference:
binder,measurement,setting,value
B1,glycan array binding signal (z-score),[17],-0.22
same,glycan array binding signal (z-score),[18],0.518
same,glycan array binding signal (z-score),[19],-0.532
same,glycan array binding signal (z-score),[20],-0.355
